# Assay results as given in PubChem BioAssay (Tox21).
# Amino acid sequences for entries named in this document (tags omitted). A change or cut given only in a name is not applied to a line headed by its entry.
# UniProt P11473: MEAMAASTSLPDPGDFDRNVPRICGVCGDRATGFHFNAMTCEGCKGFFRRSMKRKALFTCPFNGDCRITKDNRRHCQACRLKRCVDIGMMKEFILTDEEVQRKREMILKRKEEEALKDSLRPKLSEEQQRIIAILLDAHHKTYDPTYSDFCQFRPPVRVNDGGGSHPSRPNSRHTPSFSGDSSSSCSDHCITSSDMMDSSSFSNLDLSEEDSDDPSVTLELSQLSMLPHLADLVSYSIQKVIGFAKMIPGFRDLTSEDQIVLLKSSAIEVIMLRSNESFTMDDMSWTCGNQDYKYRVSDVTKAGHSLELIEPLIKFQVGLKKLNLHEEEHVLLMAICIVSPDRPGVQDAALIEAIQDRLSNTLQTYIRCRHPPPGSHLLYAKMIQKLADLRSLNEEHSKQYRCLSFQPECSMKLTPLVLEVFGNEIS
# “And” between values parts separate entries of the source, which are not always exact repeats. Equal entries are not always repeated. The inconclusive results got no clear call from the source; some entries with a clear call stand among them for comparison. Potencies of inconclusive entries are doubtful fits and often do not repeat. The source made the active and inactive calls. The call rests on the fitted dose curve; in most records, active means well fitted inhibition curve with a large enough effect in the signal ratio in the repeat runs (not every such curve was filed as active); inconclusive means weak or mixed curves, or effect the other way; inactive means no such curve, though single readings can be large or run the other way; the % refers to the signal ratio.
# Molecular target: Vitamin D3 receptor (Homo sapiens) (UniProt P11473)
# Test: qHTS assay to identify small molecule antagonists of the vitamin D receptor (VDR) signaling pathway (AID 743223)
# Conditions: VDR-UAS-bla HEK293T, beta-lactamase FRET ratio, 16 h; activity change, negative = inhibition: at 61 µM (top of the series) unless noted
# Excerpt: U.S. Tox21 Program National Center for Advancing Translational Sciences [NCATS] NIH Chemical Genomics Center [NCGC] U.S. Environmental Protection Agency [EPA] National Institutes of Environmental Health Sciences [NIEHS] National Toxicology Program [NTP] U.S. Food and Drug Administration [FDA] Tox21 Assay Overview: The vitamin D receptor (VDR), a member of nuclear hormone receptor superfamily, plays a critical role in calcium homeostasis and bone metabolism. It is also involved in cell differentiation and growth, and thrombogenicity.
# Tox21 Assay Protocol Summary: VDR-bla cells were dispensed at 2,000 cells/5 uL of assay medium per well into black wall/clear-bottom 1536-well plates using a Multidrop Combi (Thermo Fisher Scientific, Waltham, MA) dispenser. After the assay plates were incubated at a 37C and 5% CO2 for 4 h, 23 nL of compounds dissolved in DMSO, positive controls or DMSO only was transferred to the assay plate by a Pintool station (Kalypsys, San Diego, CA), followed by addition of 1 uL of 1alpha, 25-Dihydroxy Vitamin D3 (3 nM, final concentration in the wells) using a Bioraptr Flying Reagent Dispenser (FRD) workstation (Beckman Coulter, Indianapolis, IN). The plates were incubated at 37C and 5% CO2 for 16 h, and then 1 uL of LiveBLAzerTM B/G FRET substrate was added using a Bioraptr FRD. The plates were incubated at room temperature for 2 h and fluorescence intensity was measured by an Envision plate reader (PerkinElmer, Shelton, CT).
# On the % scale 0 is the no-effect control and ±100 the full control effect; potency means the concentration at half of the fitted maximal effect.
SMILES,Potency,"activity change, negative = inhibition"
S=C=NCCc1ccccc1,inactive,
CCOC(=O)COc1cc(-c2nn(C)c(OC(F)F)c2Cl)c(F)cc1Cl,inactive,
CCCCCCCCc1ccc(O)cc1,,inconclusive: 1.7% [at 78.8 µM]
CCOC(=O)CC(=O)CCl,,inconclusive: 0.805%
CCCCCCC[CH2][Sn]([Cl])([Cl])[CH2]CCCCCCC,,inconclusive: -48.7% [inhibitor]
O=S1OCC2C(CO1)C1(Cl)C(Cl)=C(Cl)C2(Cl)C1(Cl)Cl (stereo not given),"inconclusive: 54.9 µM [inhibitor, single point]",inconclusive: 13.3%
N#Cc1sc2c(=O)c3ccccc3c(=O)c=2sc1C#N,inconclusive: 11 µM,
BrC(Br)Br,inconclusive: 0.347 µM [activator],
C[C@]12CC[C@H](O)CC1=CC[C@@H]1[C@@H]2CC[C@]2(C)C(=O)CC[C@@H]12,"inconclusive: 17.4 µM [activator, partial curve]",inconclusive: -2.75% and inconclusive: 26.9%
c1csc(-c2ccc(-c3cccs3)s2)c1,"inconclusive: 24.5 µM [activator, full curve]",
Cc1ccccc1[N+](=O)[O-],,inconclusive: 17.5%
Cc1ccc(OP(=O)(Oc2ccccc2)Oc2ccccc2)cc1,inactive,
O=CC(Br)(Br)Br,"inconclusive: 48.8 µM [rising, partial curve]",
NC(=O)O,inactive,
COc1ccc2[nH]cc(CCN(C(C)C)C(C)C)c2c1,inactive,
BrCC(Br)(Br)Br,inactive,
CC(C)N1C(=O)N(c2ccccc2)CSC1=NC(C)(C)C,"inconclusive: 61.6 µM [inhibitor, single point]",
N#Cc1c[nH]cc1-c1cccc2c1OC(F)(F)O2,"inconclusive: 11 µM [inhibitor, partial curve, poor fit]",
COP(N)(=S)Oc1ccccc1C(=O)OC(C)C (stereo not given),,inconclusive: 17.2%

# Fetched by compound from above (3):
SMILES,Potency,"activity change, negative = inhibition"
C[C@]12CC[C@H](O)CC1=CC[C@@H]1[C@@H]2CC[C@]2(C)C(=O)CC[C@@H]12,"inconclusive: 17.4 µM [activator, partial curve]",inconclusive: -2.75% and inconclusive: 26.9%
COc1ccc2[nH]cc(CCN(C(C)C)C(C)C)c2c1,inactive,
O=CC(Br)(Br)Br,"inconclusive: 48.8 µM [rising, partial curve]",

# (listing goes on)

SMILES,Potency,"activity change, negative = inhibition"
[F][Sn]([c]1ccccc1)([c]1ccccc1)[c]1ccccc1,"inconclusive: 0.776 µM [rising, full curve]",
O=[N+]([O-])c1cc(C(F)(F)F)c(Cl)c([N+](=O)[O-])c1Nc1ncc(C(F)(F)F)cc1Cl,"inconclusive: 2.19 µM [rising, full curve]",
NCC(O)c1ccc(O)cc1 (stereo not given),,inconclusive: 42.4%
Oc1ccc(C2(c3ccc(O)cc3)c3ccccc3-c3ccccc32)cc1,"inconclusive: 9.77 µM [inhibitor, full curve, poor fit]",
c1cc[c]([Hg][c]2ccccc2)cc1,,inconclusive: -0.0164%
C=CC1(C)OC(=O)N(c2cc(Cl)cc(Cl)c2)C1=O (stereo not given),inactive,
CCCCC/C=C\C/C=C\C/C=C\C/C=C\CCCC(=O)NCC(=O)O,inconclusive: 26.8 µM [fluorescent],
COC(=O)NC(=S)Nc1ccccc1NC(=S)NC(=O)OC,inactive,
CC(C)c1cccc(C(C)C)c1O,inactive,
CC(C)OC(=O)C(O)(c1ccc(Cl)cc1)c1ccc(Cl)cc1,,inconclusive: -47%
CCCCC(CC)COC(=O)c1c(Br)c(Br)c(Br)c(Br)c1C(=O)OCC(CC)CCCC (stereo not given),inactive,
N#CC(C#N)=NNc1cccc(Cl)c1,inconclusive: 15.5 µM,
Clc1cc2c(cc1Cl)Oc1cc(Cl)c(Cl)cc1O2,,inactive: -1.31% [at 0.281 µM]
Cc1cc(C)c(C(=O)P(=O)(C(=O)c2c(C)cc(C)cc2C)c2ccccc2)c(C)c1,inactive,
CCCCCCCCn1sccc1=O,"inconclusive: 17.4 µM [rising, full curve] and inconclusive: 22.9 µM [rising, full curve]",
c1ccc2c(c1)Sc1ccccc1N2CC1CN2CCC1CC2 (stereo not given),inconclusive: 23.9 µM [partial curve],
CN1CCC(O)(c2ccc(F)cc2)C(C(=O)c2ccc(F)cc2)C1 (stereo not given),,inconclusive: -4.72%
Cc1ccc2ccccc2c1,,inconclusive: 29.4%
CC(=O)[O][Pb]([c]1ccccc1)([c]1ccccc1)[c]1ccccc1,inconclusive: 0.692 µM [full curve],
